Experimental data taken from PubChem BioAssay AID1347076 (National Center for Advancing Translational Sciences (NCATS), 2019).
Among all 400,000 compounds or so, about 13,000 (3.2%) were called active. The shares of active, inactive and inconclusive entries below differ from those in the screen. Calls follow the shape of the dose curve; as a rule, active = well fitted cell-killing curve with a large enough effect; inconclusive = small, poorly fitted or top-dose-only effect, or effect the other way; inactive = flat fitted curve, though single readings scatter. A potency beside an inconclusive call is a rough fit, not a confirmed value.

Test: qHTS assay for MDR1-selective chemotherapeutics: Primary screen using the drug-selected MDR subline cells KB-V1; also: nearly all actives have a fitted effect of over 60% in size
Details: KB-V1 MDR cells viability, CellTiter-Glo, 72 h; activity change, negative = cytotoxicity: at 46.1 µM (top of the series)
Method in brief: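 KB-V1 cells (P-gp-expressing MDR subline of KB-3-1) in phenol-red-free DMEM with 10% FBS were exposed to library compounds over a concentration series for 72 h at 37 degrees C. Viability read by CellTiter-Glo luminescence; concentration-effect curves fitted after normalization.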
% is scaled to controls: 0 for no effect and ±100 for the full control effect; potency is read from the fitted curve at half-maximal effect.

SMILES | activity change, negative = cytotoxicity | Potency
COc1ccccc1S(=O)(=O)N(C)C[C@H]1Oc2cc(C#CCC3CCCC3)ccc2S(=O)(=O)N([C@H](C)CO)C[C@H]1C | inactive: 4.44% | 
NC1=NC(=O)C(c2ccccc2)(c2ccccc2)S1 |  | inconclusive: 20.6 µM [cytotoxic, single point]
Cc1ccsc1/C=C(\C#N)C(=O)NCc1ccco1 |  | inconclusive: 14.6 µM [cytotoxic, partial curve, poor fit]
O=C(C(=O)N1CCN(C(=O)OCc2ccccc2)CC1)c1cccs1 | inactive: -26.3% | 
CCCC(=O)Oc1ccc(C2NC(=O)c3ccccc3O2)cc1OC (centres undefined) |  | inconclusive: 29.1 µM [rising, single point]
COc1ccc(N2CCOCC2)c(NC(=O)c2cccs2)c1 |  | inconclusive: 32.6 µM [cytotoxic, single point]
CCOC(=O)c1cc(-c2ccccc2)n(CCC(=O)N2CCN(c3ccccc3OC)CC2)c1C |  | inconclusive: 29.1 µM [cytotoxic, single point]
O=C(Nc1ccccc1)OCc1cncs1 |  | inconclusive: 18.4 µM [rising, single point]
O=C(N/N=C/c1cccc([N+](=O)[O-])c1)c1cc(-c2ccc3c(c2)OCO3)n[nH]1 | inactive: 16.7% | 
COCCCNC(=S)NCCNc1nc2c(C)c(C)ccc2cc1C#N |  | inconclusive: 9.2 µM [cytotoxic, partial curve]
COc1ccccc1N1CCN(CCCNC(=O)c2cnn(-c3cccc(Cl)c3)c2C2CCN(C(=O)OC(C)(C)C)CC2)CC1 |  | inconclusive: 23.1 µM [cytotoxic, single point]
Cc1ccc(CN2C(=O)C3(c4ccccc42)N(c2cccc(F)c2)C(=O)CS3(=O)=O)cc1 (centres undefined) |  | inconclusive: 16.4 µM [cytotoxic, single point]
Cc1cc(C)c(S(=O)(=O)Nc2ncn[nH]2)c(C)c1 |  | inconclusive: 9.2 µM [rising, partial curve]
COc1cc(CNCc2c[nH]c3ccccc23)cc(OC)c1 |  | active: 7.31 µM
CCC1CO/C(=C(\C(Cl)=C(Cl)Cl)[N+](=O)[O-])N1 (centres undefined) | inactive: 4.59% | 
CCOc1ccc(N(CC(=O)NCC2CCCO2)S(=O)(=O)c2ccc(C)cc2)cc1 (centres undefined) |  | inconclusive: 13 µM [cytotoxic, partial curve, poor fit]
COc1cccc(C(=O)NCCS(=O)(=O)N2CCCC(C)C2)c1 (centres undefined) | inactive: -1.85% | 
CC[N+]1(CC(O)COC2CC(C)CC(C)(C)C2)CCOCC1 (centres undefined) | inactive: -3.55% | 
COc1ccccc1Nc1nc(N)nc(CSC(=S)N2CCCCC2C)n1 (centres undefined) |  | inconclusive: 14.6 µM [cytotoxic, partial curve]
Cc1cccc(NC(=O)CSCC(=O)Nc2ccccc2N2CCCC2)c1 |  | inconclusive: 20.6 µM [cytotoxic, partial curve, poor fit]
Cc1ccc([N+](=O)[O-])c(OCCN2CCNCC2)c1 | inactive: -12.2% | 
CCC(C)Nc1nc(N)c([N+](=O)[O-])c(NC2CCCCC2)n1 (centres undefined) | inactive: -8.82% | 

Rewritten as tab-separated lines: entries from further up
SMILES	activity change, negative = cytotoxicity	Potency
Cc1cc(C)c(S(=O)(=O)Nc2ncn[nH]2)c(C)c1		inconclusive: 9.2 µM [rising, partial curve]
COc1cc(CNCc2c[nH]c3ccccc23)cc(OC)c1		active: 7.31 µM

(continued)

SMILES | activity change, negative = cytotoxicity | Potency
CS(=O)(=O)c1ccc(N2CCN(c3ccccn3)CC2)c([N+](=O)[O-])c1 |  | inconclusive: 20.6 µM [cytotoxic, partial curve]
Cc1ccccc1CN1CCC(CNc2ncnc3onc(-c4ccc(F)cc4)c23)CC1 | inactive: -17.2% | 
O=C(C=C1NCCN1)c1ccccc1 | inconclusive: -3.71% | 
CCCn1c(O)c(N=Nc2ccc3ccccc3n2)c2ccccc21 |  | inconclusive: 23.1 µM [cytotoxic, partial curve]
Cc1ccc(OCc2ccc(-c3nc(C#N)c(NCc4cccnc4)o3)o2)cc1 |  | inconclusive: 29.1 µM [cytotoxic, single point]
COc1cc(C(=O)Nc2ccc(C(N)=O)cc2)c([N+](=O)[O-])cc1OC | inconclusive: 42.8% | 
CCc1nc(N2CCN(C(=O)c3ccccc3)CC2)c2c3c(sc2n1)CCCC3 |  | inconclusive: 23.1 µM [cytotoxic, partial curve, poor fit]
CC(=O)Nc1ccc2nc(-c3cc(C)ccc3C)[nH]c2c1 |  | active: 16.4 µM
CN(C)c1ccc(C#Cc2ccc3cc(CCO)oc(=O)c3c2)cc1 | inactive: 20.5% | 
CCOC(=O)c1cnn(-c2nc(-c3ccc(C)cc3)cs2)c1C(F)(F)F |  | inconclusive: 29.1 µM [cytotoxic, single point]
CC1=NN(c2ccccc2)C(=O)/C1=C\c1cc(C)n(-c2ccccc2)c1C |  | inconclusive: 14.6 µM [cytotoxic, partial curve, poor fit]
CCOC(=O)N1CCN(C(=O)c2cnn3c(C(F)F)cc(-c4ccc(C)cc4)nc23)CC1 |  | inconclusive: 2.59 µM [cytotoxic, partial curve]
CCOc1cc(/C=N/NC(N)=S)cc(Br)c1OCc1ccccc1C | inactive: 8.99% | 
CC1CCCN(C(=O)c2ccc3c(c2)OCCO3)C1 (centres undefined) |  | inconclusive: 23.1 µM [rising, single point]
O=C(CCS(=O)(=O)c1ccc(Cl)cc1)OCC(=O)N1CCCCC1 |  | inconclusive: 25.9 µM [rising, partial curve, poor fit]
Cc1ccc(S(=O)(=O)N2CCN(CCc3ccccc3)CC2)c(C)c1 |  | inconclusive: 18.4 µM [cytotoxic, partial curve, poor fit]
Nc1ncnc2c1ncn2[C@H]1C[C@H](O)[C@@H](CO)O1 |  | inconclusive: 23.1 µM [rising, single point]
Cc1ccc(S(=O)(=O)NCc2ccc(C(=O)N3CCCC3)cc2)cc1 |  | inconclusive: 29.1 µM [cytotoxic, single point]
Cc1ccc2[nH]c(=O)c(CN(Cc3ccccc3)Cc3nnnn3C3CCCC3)cc2c1 |  | active: 23.1 µM
COc1ccc(-n2c(Cc3cccs3)nnc2SCC(=O)Nc2ccc3c(c2)OCCO3)cc1 |  | inconclusive: 29.1 µM [cytotoxic, single point]
CCCCCCCCCCCCN1[C@@H](CC(=O)O)c2cc(C(F)(F)F)ccc2S1(=O)=O |  | inactive
Cn1c(SCC(=O)Nc2nccs2)nnc1-c1ccncc1 |  | inconclusive: 23.1 µM [rising, partial curve, poor fit]
